Data taken from PubChem BioAssay AID504648 (National Center for Advancing Translational Sciences (NCATS), 2011).
Among all 390,000 compounds or so, about 610 (0.16%) were called active. The shares of active, inactive and inconclusive entries below differ from those in the screen. The call rests on the fitted dose curve; in most records, active means well fitted inhibition curve with a large enough effect; inconclusive means small, poorly fitted or top-dose-only effect, or effect the other way, or another doubt; inactive means no such curve, though single readings can be large or run the other way. A potency beside an inconclusive call is a rough fit, not a confirmed value.

Test: Nrf2 qHTS screen for inhibitors: counterscreen for cytotoxicity
Conditions: A549 ARE-Fluc cells, CellTiter-Fluor viability, 18-24 h; activity change, negative = cytotoxicity: at 46 µM (top of the series)
Method in brief: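 A549 ARE_Fluc cells in 5% FBS OPTI-MEM were exposed to compounds in concentration-response for 18-24 h at 37 deg C. Viability was read by CellTiter-Fluor fluorescence (Ex 405/Em 525) after 30 min, before the luciferase read.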
On the % scale 0 is the no-effect control and ±100 the full control effect; potency means the concentration at half of the fitted maximal effect.

SMILES | activity change, negative = cytotoxicity | Potency
CCOc1ccc(NC(=O)C2CCCN(c3c(CC)c(C)nc4ncnn34)C2)cc1 (centres undefined) | inactive: -13.9% | 
COc1cccc(C2=CC(=O)CC(c3ccco3)C2)c1 (centres undefined) | inactive: -4.73% | 
CCN(CCCNC(=O)CNC(=O)c1nn(-c2ccc(OC)cc2OC)c(=O)c2ccccc12)c1cccc(C)c1 |  | inconclusive: 6.51 µM [falling, partial curve, poor fit]
COc1ccc(Br)cc1C1C2C=CCC(C)C2C(=O)N1Cc1ccccc1 (centres undefined) | inactive: -9.11% | 
S=C(NCCCN1CCOCC1)N1CCN(c2nc(-c3ccccc3)cs2)CC1 | inactive: 0.56% | 
Cc1ccc(C)c(N2CCN(C(=O)c3cc4ccc5cccnc5c4[nH]3)CC2)c1 | inactive: -15.5% | 
CN(C)S(=O)(=O)c1ccc(N2C(=O)CC2(/C=C/c2ccccc2)C(=O)NC2CCCC2)cc1 (centres undefined) | inactive: -5.34% | 
Cc1ccc(NC(=O)C(Cc2ccccc2)NS(=O)(=O)c2ccc3c(c2)oc(=O)n3C)c(Cl)c1 (centres undefined) | inactive: -5.71% | 
Cc1ccc(-c2nc3ccccc3[nH]2)cc1NC(=O)/C=C/c1ccco1 |  | inconclusive: 18.4 µM [falling, single point]
COc1ccc(CN(C2CCCCC2C)S(=O)(=O)c2ccc(S(=O)(=O)N(C)C)cc2)cc1OC (centres undefined) |  | inconclusive: 11.6 µM [falling, partial curve]
CCOc1ccc(/C=N/NC(=O)c2cc(-c3ccccc3)nc3ccccc23)cc1O |  | inconclusive: 0.731 µM [activator, full curve, poor fit]
CCN(CC)S(=O)(=O)c1ccc2c(c1)N(CC(=O)NCCc1ccc(OC)c(OC)c1)C(=O)CO2 |  | inconclusive: 1.46 µM [falling, partial curve, poor fit]
COc1ccccc1NC(=O)C1=C(C)Nc2nc(SCc3ccccc3)nn2C1c1ccccn1 (centres undefined) | inactive: 4.78% | 
Cc1cc(C(=O)N/N=C/c2ccc([N+](=O)[O-])s2)n[nH]1 |  | inconclusive: 29.1 µM [falling, single point]
CCOC(=O)C1(CC2CCCCO2)CCN(Cc2ccccc2-c2ccco2)CC1 (centres undefined) |  | inconclusive: 29.1 µM [activator, partial curve, poor fit]
COc1cc(OC)c(Nc2nc3ccc(C)cc3n3nnnc23)cc1Cl | inactive: 1.65% | 
CC(=O)N(Cc1ccc(F)cc1)C1=C(NCc2ccccc2)C(=O)c2ccccc2C1=O |  | active: 10 µM
CN(CCO)c1cc(Sc2nc3ccccc3s2)c2nonc2c1[N+](=O)[O-] |  | inconclusive: 23.1 µM [falling, single point]
O=C(CN1C(=O)/C(=C\c2cccc(Cl)c2)Sc2ccccc21)NCCCN1CCOCC1 | inactive: -1.62% | 
O=C(NCC1CCN(Cc2ccc(F)cc2)CC1)C1CCCN(c2ncnc3c2nc2n3CCCCC2)C1 (centres undefined) | inactive: 6% | 
C[C@]12CC[C@@H]3c4ccc(OC(=O)c5ccccc5)cc4CC[C@H]3[C@@H]1CC[C@@H]2O | inactive: -5.63% | 
COCc1cc(C)nc(SCc2nc3ccccc3c(=O)[nH]2)c1C#N |  | inconclusive: 2.59 µM [falling, partial curve, poor fit]

SMILES | activity change, negative = cytotoxicity | Potency
COc1ccccc1/C=C1\CCC(C2CCCC2)C1=O (centres undefined) |  | inconclusive: 20.6 µM [activator, single point]
COc1cccc(CNC(=O)CN2C(=O)N(c3cc(C)ccc3C)S(=O)(=O)c3ccccc32)c1OC |  | inconclusive: 16.4 µM [falling, partial curve, poor fit]
COc1ccc2c(c1)CCc1c(C(=O)N3CCCc4ccccc43)noc1-2 |  | inconclusive: 29.1 µM [falling, single point]
Cc1ccnc(N/C=C(\C#N)c2nc(-c3cccc(Br)c3)cs2)c1 |  | inconclusive: 6.51 µM [activator, single point]
COc1cccc(NC(=O)Cn2cc(C(=O)C3CCCCC3)c3ccccc32)c1 |  | inconclusive: 29.1 µM [falling, single point]
CC(C)c1ccc(/C=c2\sc3nc(-c4ccncc4)nn3c2=O)cc1 | inactive: 1.76% | 
O=S(=O)(Nc1cc(Br)cc2cccnc12)c1cccc2ccccc12 |  | inconclusive: 11.6 µM [falling, partial curve]
O=c1cc(CSc2ncn[nH]2)[nH]c2c(Cl)cccc12 | inactive: -0.571% | 
O=C(Nc1ccc(-c2cc(C(F)(F)F)nn2-c2ccccc2)cc1)c1cccc(F)c1 |  | inconclusive: 23.1 µM [falling, single point]
Cn1ncc2c(Nc3ccc(O)cc3)nc(Cl)nc21 | inactive: -3.06% | 
CCOc1ccc(C2c3c(-c4ccc(C)cc4)n[nH]c3C(=O)N2c2ccc(Cl)cc2)cc1 (centres undefined) |  | inconclusive: 29.1 µM [falling, single point]
O=C(CC1N=C2c3ccccc3N=C(SCc3ccc(Cl)cc3)N2C1=O)NCCc1ccccc1 (centres undefined) |  | inconclusive: 29.1 µM [falling, single point]
CC(/C=C1\SC(=S)N(C(C(=O)O)C(C)C)C1=O)=C\c1ccccc1 (centres undefined) |  | inconclusive: 18.4 µM [falling, partial curve, poor fit]
COC(=O)c1cc2c(-c3ccccc3)cc3ccccn3c-2c1C(=O)OC |  | inconclusive: 16.4 µM [falling, single point]
O=C(/C=C/c1cccc([N+](=O)[O-])c1)n1cnc2ccccc21 |  | inconclusive: 29.1 µM [falling, single point]
CC(=O)N1CCc2c(sc3c2c(=O)n(CCc2ccccc2)c(=O)n3Cc2ccc(F)cc2)C1 | inactive: -28.8% | 
COc1ccc(CCN(Cc2cc3cc(C)cc(C)c3nc2Cl)C(=O)C2CC2)cc1 | inactive: -21.2% | 
O=C(/C=C/c1ccccc1)Nc1ncn[nH]1 |  | inconclusive: 9.2 µM [falling, partial curve]
Fc1ccc(C2CC(c3ccc(F)cc3)n3ncnc3N2)cc1 (centres undefined) |  | inconclusive: 3.26 µM [activator, partial curve, poor fit]
O=C(Nc1ccccc1)N1CCCC(c2nc(-c3cccs3)no2)C1 (centres undefined) | inactive: 1.13% | 
CS(=O)(=O)c1cc([N+](=O)[O-])c(Sc2nc3ccccc3[nH]2)c([N+](=O)[O-])c1 |  | active: 23.1 µM
Cc1nnc(N2CCN(C(=O)Nc3cc(F)ccc3F)CC2)c2nn(-c3ccc(Cl)cc3)c(C)c12 |  | inconclusive: 14.6 µM [falling, single point]

Copied from the list:
CC(C)c1ccc(/C=c2\sc3nc(-c4ccncc4)nn3c2=O)cc1 | activity change, negative = cytotoxicity: inactive: 1.76%
O=S(=O)(Nc1cc(Br)cc2cccnc12)c1cccc2ccccc12 | Potency: inconclusive: 11.6 µM [falling, partial curve]
